Experimental data: PubChem BioAssay AID493246 (Drosophila RNAi Screening Center, 2011)

Purpose: 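Genome-wide search for dsRNAs that reduce cell number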 (primary screen)
Cells: Drosophila Kc and S2R+ cells
Reagents: long dsRNA against Drosophila genes
Measured: 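Cell number per well after knock-down, printed as raw plate values; calls were based on per-plate z-scores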
Direction: Kc cell number and S2R+ cell number: higher = more cells remaining
Rule for the call: 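Active when the per-plate z-score of cell number is 3 or more in the direction of fewer cells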
The deposit covers about 21,000 reagents; below is a random part of those that have a named target and a result. Over the whole deposit, 429 (2%) are marked active. 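Values are raw and not normalised between plates; calls rest on per-plate z-scores that were not deposited.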 Not stated in the record: the amount of reagent, the time to read-out.

| target gene | PubChem SID | Kc cell number, rep 1 | Kc cell number, rep 2 | S2R+ cell number, rep 1 | S2R+ cell number, rep 2 | Call |
| --- | --- | --- | --- | --- | --- | --- |
| CG13713 (GeneID 59233) | SID104188114 | 1.70e6 | 1.72e6 | 1.29e6 | 1.23e6 | inactive |
| SLO2 (GeneID 5740325) | SID104186004 | 5.68e5 | 8.31e5 | 4.87e5 | 5.24e5 | active |
| SLO2 (GeneID 5740325) | SID104186006 | 1.64e6 | 1.70e6 | 1.41e6 | 1.51e6 | inactive |
| SLO2 (GeneID 5740325) | SID104186008 | 1.40e6 | 1.52e6 | 1.21e6 | 1.34e6 | inactive |
| SLO2 (GeneID 5740325) | SID104186010 | 1.46e6 | 1.58e6 | 1.19e6 | 1.28e6 | inactive |
| SLO2 (GeneID 5740325) | SID104186011 | 7.10e5 | 9.35e5 | 4.81e5 | 5.32e5 | active |
| Usp8 (GeneID 42509) | SID104195668 | 1.65e6 | 1.79e6 | 1.18e6 | 1.30e6 | inactive |
| CG9590 (GeneID 41907) | SID104196298 | 1.63e6 | 1.70e6 | 1.18e6 | 1.26e6 | inactive |
| PIG-K (GeneID 31163) | SID104198288 | 1.52e6 | 1.50e6 | 1.11e6 | 1.16e6 | inactive |

Laid out differently: 2 of the entries above.
target gene	PubChem SID	Kc cell number, rep 1	Kc cell number, rep 2	S2R+ cell number, rep 1	S2R+ cell number, rep 2	Call
CG13713 (GeneID 59233)	SID104188114	1.70e6	1.72e6	1.29e6	1.23e6	inactive
SLO2 (GeneID 5740325)	SID104186004	5.68e5	8.31e5	4.87e5	5.24e5	active

The listing continues:
| target gene | PubChem SID | Kc cell number, rep 1 | Kc cell number, rep 2 | S2R+ cell number, rep 1 | S2R+ cell number, rep 2 | Call |
| --- | --- | --- | --- | --- | --- | --- |
| step (GeneID 35425) | SID104183486 | 1.69e6 | 1.82e6 | 1.36e6 | 3.46e5 | inactive |
| step (GeneID 35425) | SID104183491 | 1.81e6 | 1.83e6 | 1.23e6 | 2.37e5 | inactive |
| Spindly (GeneID 33578) | SID104180222 | 1.48e6 | 1.41e6 | 7.36e5 | 8.44e5 | active |
| CG13836 (retired record) (GeneID 42741) | SID104194478 | 1.46e6 | 1.48e6 | 1.01e6 | 1.08e6 | inactive |
| tex (GeneID 40983) | SID104196309 | 1.72e6 | 1.82e6 | 1.39e6 | 1.58e6 | inactive |
| Cyp6t2Psi (GeneID 3772355) | SID104181632 | 6.11e5 | – | 9.47e5 | – | inactive |
| Pgant3 (GeneID 35627) | SID104185734 | 1.39e6 | 1.46e6 | 1.09e6 | 1.13e6 | inactive |
| gukh (GeneID 53563) | SID104194560 | 1.45e6 | 1.45e6 | 1.07e6 | 1.13e6 | inactive |
| gukh (GeneID 53563) | SID104195598 | 1.45e6 | 1.50e6 | 1.08e6 | 1.15e6 | inactive |
| gukh (GeneID 53563) | SID104195736 | 1.47e6 | 1.62e6 | 1.08e6 | 1.22e6 | inactive |
| CG3457 (GeneID 31196) | SID104198301 | 5.53e5 | – | 8.08e5 | – | inactive |
| Cnx14D (GeneID 32620) | SID104200006 | 1.60e6 | 1.66e6 | 1.12e6 | 1.27e6 | inactive |
| betaggt-I (GeneID 33704) | SID104183286 | 1.70e6 | 1.64e6 | 1.17e6 | 1.29e6 | inactive |
| CG14205 (GeneID 32952) | SID104199352 | 1.66e6 | 1.66e6 | 1.14e6 | 1.29e6 | inactive |
| CG3108 (GeneID 31506) | SID104198072 | 5.86e5 | – | 9.14e5 | – | inactive |
